From patent US9139596B2, “Cyclic prodrugs of duocarmycin analogs” (The Scripps Research Institute, priority 2012, dated 2015)
At least one compound was matched to its structure with a doubt left.

Experiment: Chemical reactivity of N-Boc-prodrug 16 under acidic, basic and nucleophilic conditions
Type: physicochemical
Conditions: 23 °C, LCMS
Description: In order to determine the ability of the free drug to be released under physiological conditions, the chemical reactivity of N-Boc-prodrug 16 was assessed under a variety of acidic, basic, and nucleophilic conditions.

CC(C)(C)OC(=O)N1C[C@@H](CCl)c2c1cc1c3c(cccc23)NC(=O)O1 [Compound 16, tert-Butyl 10-(Chloromethyl)-5-oxo-9,10-dihydro-4H-pyrrolo[3′,2′:5,6]naphtho[1,8-de][1,3]oxazine-8(5H)-carboxylate]
percent of 16 hydrolyzed (entry 1, CH2Cl2, Et3N (>100 equiv), 2 h): stable | percent of 16 hydrolyzed (entry 1, CH2Cl2, Et3N (>100 equiv), 24 h): stable | percent of 16 hydrolyzed (entry 1, CH2Cl2, Et3N (>100 equiv), 48 h): stable | percent of 16 hydrolyzed (entry 2, CH2Cl2, DMAP (>100 equiv), 2 h): stable | percent of 16 hydrolyzed (entry 2, CH2Cl2, DMAP (>100 equiv), 24 h): stable | percent of 16 hydrolyzed (entry 2, CH2Cl2, DMAP (>100 equiv), 48 h): 12% | percent of 16 hydrolyzed (entry 3, THF, NHCO3 (>100 equiv), 2 h): stable | percent of 16 hydrolyzed (entry 3, THF, NHCO3 (>100 equiv), 24 h): stable | percent of 16 hydrolyzed (entry 3, THF, NHCO3 (>100 equiv), 48 h): 7% | percent of 16 hydrolyzed (entry 4, THF:H2O (1:1), NHCO3 (>100 equiv), 2 h): <4% | percent of 16 hydrolyzed (entry 4, THF:H2O (1:1), NHCO3 (>100 equiv), 24 h): 4% | percent of 16 hydrolyzed (entry 4, THF:H2O (1:1), NHCO3 (>100 equiv), 48 h): 9% | percent of 16 hydrolyzed (entry 5, DMF:H2O (1:1), NHCO3 (>100 equiv), 2 h): 7% | percent of 16 hydrolyzed (entry 5, DMF:H2O (1:1), NHCO3 (>100 equiv), 24 h): 12% | percent of 16 hydrolyzed (entry 5, DMF:H2O (1:1), NHCO3 (>100 equiv), 48 h): 19% | percent of 16 hydrolyzed (entry 6, MeOH, NHCO3 (>100 equiv), 2 h): 18% | percent of 16 hydrolyzed (entry 6, MeOH, NHCO3 (>100 equiv), 24 h): 74% | percent of 16 hydrolyzed (entry 6, MeOH, NHCO3 (>100 equiv), 48 h): 100%
